The values that follow come from patent US20230382889A1 (Volastra Therapeutics, Inc., priority 2022, published 2023).

By UniProt entry, the sequences of proteins in these tests, tags left out. Residues count along the entry.
UniProt Q8NI77, 1-374 limits assumed: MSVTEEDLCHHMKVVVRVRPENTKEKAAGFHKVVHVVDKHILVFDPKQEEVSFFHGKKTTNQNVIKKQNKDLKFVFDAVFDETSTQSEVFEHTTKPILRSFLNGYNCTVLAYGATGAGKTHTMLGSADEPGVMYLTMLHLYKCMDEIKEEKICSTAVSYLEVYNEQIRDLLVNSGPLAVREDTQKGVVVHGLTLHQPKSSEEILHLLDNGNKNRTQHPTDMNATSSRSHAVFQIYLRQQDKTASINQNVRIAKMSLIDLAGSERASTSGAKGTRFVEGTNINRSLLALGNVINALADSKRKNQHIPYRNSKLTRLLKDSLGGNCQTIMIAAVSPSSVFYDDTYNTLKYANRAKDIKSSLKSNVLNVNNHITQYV

The assay deals with hKIF18A (1-374) (Homo sapiens (Human), UniProt Q8NI77). The experiment in a line: Inhibition of KIF18A microtubule-dependent ATPase activity (ADP-Glo). In kind it is biochemical. The settings on record: 4 nM hKIF18A (1-374). On the technique in general: In ADP-Glo the light output rises with the ADP produced.

Structures were worked out from names or drawings and are uncertain.

Regarding `O=S(=O)(CCO)Nc1ccc(-n2cc(-c3csc(N4CCC(F)(F)CC4)n3)nn2)c(N2CCC3(CC2)CC3)c1` [Compound 69, N-(4-(4-(2-(4,4-difluoropiperidin-1-yl)thiazol-4-yl)-1H-1,2,3-triazol-1-yl)-3-(6-azaspiro[2.5]octan-6-yl)phenyl)-2-hydroxyethane-1-sulfonamide], the IC50 came to 0.012 µM.

Usually IC50 stands for the concentration needed to halve the response being measured.
